Data on three substances can be found in US20040152868A1 (priority 2001, published 2004).

A short description of data set [1]: general procedure: Fmoc solid-phase peptide synthesis; TentaGel S RAM; preformed Fmoc-protected HObt esters (3 eq.). The note with it: whole synthesis, scale 1 g resin.
Data set [2] can be described thus: general procedure: Fmoc solid-phase peptide synthesis; TentaGel S RAM-Lys(Boc)Fmoc; preformed Fmoc-protected HObt esters (3 eq.). The note with it: whole synthesis, scale 1 g resin.
Data set [3] in a line: general procedure: Fmoc solid-phase peptide synthesis; TentaGel S RAM; TentaGel S RAM-Lys(Boc)Fmoc (0.23-0.24 mmol/g); preformed Fmoc-protected HObt esters (3 eq.). To be noted: whole synthesis.

* marks the point of attachment. Acm = CC(=O)NC*

cyclo(GEIGAYAAGTGQ) came in with a crude mass in data set [1] of 40 mg.
Turning to H-SPNFIWK-NH2, in data set [2], the crude mass is reported as 172 mg. Moreover, the “final purity (method not given)” value in data set [3] is “better than 97%”.
Regarding “H-PNTC(Acm)EICAYAAC(Acm)TGCDKKKKKK-NH2 (cysteine pairing not given here)”, the “final purity (method not given)” value in data set [3] was “better than 60%”.
